## Screening data, single-dose tests

Amino acid sequences for entries named in this document (tags omitted). Residues count along the entry.
UniProt Q8IDJ8, 1-583: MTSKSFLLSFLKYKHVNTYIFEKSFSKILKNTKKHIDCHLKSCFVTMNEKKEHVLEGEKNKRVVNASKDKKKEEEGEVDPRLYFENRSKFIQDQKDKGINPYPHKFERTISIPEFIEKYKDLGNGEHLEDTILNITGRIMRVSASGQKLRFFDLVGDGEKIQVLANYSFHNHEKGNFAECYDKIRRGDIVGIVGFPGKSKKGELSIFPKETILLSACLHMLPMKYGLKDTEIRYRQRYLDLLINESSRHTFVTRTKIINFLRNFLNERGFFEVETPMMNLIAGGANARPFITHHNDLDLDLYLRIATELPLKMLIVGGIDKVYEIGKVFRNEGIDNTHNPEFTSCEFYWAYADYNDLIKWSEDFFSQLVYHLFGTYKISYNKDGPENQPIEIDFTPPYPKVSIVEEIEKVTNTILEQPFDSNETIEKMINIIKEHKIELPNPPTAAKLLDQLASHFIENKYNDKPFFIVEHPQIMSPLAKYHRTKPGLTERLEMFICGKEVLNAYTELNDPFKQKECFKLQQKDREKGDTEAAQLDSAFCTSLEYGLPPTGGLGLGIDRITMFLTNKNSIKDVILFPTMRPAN
UniProt P9WNZ1, whole entry: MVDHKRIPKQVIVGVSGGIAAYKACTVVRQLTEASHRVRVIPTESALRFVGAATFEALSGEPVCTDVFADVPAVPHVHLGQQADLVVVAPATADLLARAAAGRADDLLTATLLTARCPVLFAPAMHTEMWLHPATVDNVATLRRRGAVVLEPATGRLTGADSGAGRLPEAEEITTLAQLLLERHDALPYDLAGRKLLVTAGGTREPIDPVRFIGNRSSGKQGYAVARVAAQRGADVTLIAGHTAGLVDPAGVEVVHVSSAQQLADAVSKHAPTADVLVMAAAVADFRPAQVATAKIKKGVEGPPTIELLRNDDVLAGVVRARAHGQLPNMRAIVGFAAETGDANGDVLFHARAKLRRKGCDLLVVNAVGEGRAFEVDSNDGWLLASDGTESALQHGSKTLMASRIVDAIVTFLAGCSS

From ChEMBL document CHEMBL3988442, “University of Dundee, Small-Polar-MMV Screening Library” (2021).

PfKRS1: 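Enzyme assay of the cytosolic lysyl-tRNA synthetase in 384-well plates, read by luminescence. Target: Lysine-tRNA ligase, Plasmodium falciparum 3D7 (UniProt Q8IDJ8). Concentration: 30 µM. Higher reads as stronger inhibition, judged from the few compounds that gave an IC50. About 69,000 compounds were tested under these conditions; 0.071% (about 49) showed 50% or more at least once.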
Toxoplasma: 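Assay of Toxoplasma gondii numbers, read through their beta-galactosidase reporter with a colour substrate. Tested at 10 µM. Higher reads as fewer parasites (inferred from which compounds were picked for retests). About 67,000 compounds were tested under these conditions; 0.38% (about 260) showed 50% or more at least once.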
CoaBC: 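Enzyme assay of CoaBC with a phosphate dye (Biomol Green) read at 650 nm. Target: Coenzyme A biosynthesis protein CoaBC, Mycobacterium tuberculosis (UniProt P9WNZ1). Compounds at 30 µM. Higher reads as stronger inhibition, judged from the few compounds that gave an IC50. Most strong results did not repeat in a second test. Size under these conditions: about 67,000 compounds, about 40 of them at 50% or above in at least one test.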

Each number is a percent effect as filed. How 0% and 100% were set is not recorded. Most values in the screen are low, and negative values occur. Compounds were drawn at random from those tested, without regard to their results.

Result for Cc1nn(C)c(C)c1C1COCCN1C(=O)c1cnc(N)c(Cl)c1 (stereo not drawn) was PfKRS1: 3.165%; Toxoplasma: -1.165%; CoaBC: 2.169%.
Result for CCN1CCCC2(CCN(Cc3nnc(C4CC4)o3)C2)C1=O (stereo not drawn) was PfKRS1: 3.12%; Toxoplasma: 6.383%; CoaBC: 8.28%.
Result for CS(=O)(=O)CC1CCCN(C(=O)Cn2cccc(C(F)(F)F)c2=O)C1 (stereo not drawn) was PfKRS1: -5.044%; Toxoplasma: -10.37%; CoaBC: -1.709%.
Result for Cc1noc([C@@H]2C[C@H]3OCC[C@H]3N(S(=O)(=O)c3ccccc3)C2)n1 was PfKRS1: -0.8834%; CoaBC: -5.331%.
Result for COC[C@]12COC[C@H]1CN(Cc1ccc3ccccc3n1)C2 was PfKRS1: -0.8442%; CoaBC: 1.426%.
Result for CC(C(=O)N1CCN(c2cnccn2)CC1)n1cncn1 (stereo not drawn) was PfKRS1: -1.065%; Toxoplasma: -4.893%; CoaBC: 6.005%.
Result for CC(C)Cc1noc(CN2CCN(c3nccs3)CC2)n1 was PfKRS1: 1.588%; Toxoplasma: 1.059%; CoaBC: 2.651%.
Result for O=S(=O)(c1cccnc1)N1CCN(CCn2ccnc2)CC1 was PfKRS1: 6.827%; Toxoplasma: 2.627%; CoaBC: -24.52%.
Result for CCN(C)C[C@@H]1CN(Cc2cccc(Cl)c2)C[C@@H]1CO was PfKRS1: 2.783%; Toxoplasma: -15.01%; CoaBC: 6.584%.
Result for CC1Oc2c(cccc2C(=O)N2CCCCCC2)NC1=O (stereo not drawn) was PfKRS1: -2.267%; Toxoplasma: 13.25%; CoaBC: -8.854%.
Result for N#Cc1ccc(N2CCC(c3nccn3Cc3cscn3)CC2)nc1 was PfKRS1: 9.142%; Toxoplasma: 4.909%; CoaBC: 1.542%.
Result for COc1ccc(F)cc1C(=O)N1CCCC(CNS(C)(=O)=O)C1 (stereo not drawn) was PfKRS1: -0.5434%; Toxoplasma: 3.738%; CoaBC: -2.678%.
Result for CCO[C@H]1CO[C@@]2(CCCN(S(=O)(=O)c3cccnc3)C2)C1.O=C(O)C(F)(F)F was Toxoplasma: -9.235%.
Result for c1ccc(CO[C@H]2CO[C@@]3(CCCN(Cc4cccnc4)C3)C2)nc1 was PfKRS1: 0.5933%; CoaBC: 4.762%.
Result for COc1nccnc1-c1cc(NC2CCNCC2)nc2[nH]ccc12 was PfKRS1: 4.082%; Toxoplasma: -10.41%; CoaBC: 3.474%.
Result for CSCC(C)(O)CNc1cccc(F)c1C(C)=O (stereo not drawn) was PfKRS1: 2.84%; Toxoplasma: -10.13%; CoaBC: -9.89%.
Result for O=C(c1cocn1)N1C[C@H]2CCC[C@@]2(COCc2cccnc2)C1 was PfKRS1: 2.437%; CoaBC: 2.76%.
Result for O=C(O)C(F)(F)F.[H][C@@]12OCCN(Cc3nccn3C)[C@@]1([H])CCC2CNC(=O)c1ccco1 (stereo partly drawn) was Toxoplasma: -20.15%.
Result for [H][C@@]12C[C@H](NC(=O)c3nc4ccccc4[nH]3)CN1CCN(C)C2 was Toxoplasma: -0.2309%.
Result for Cl.O=C(C1CCC1)N1CCC2(CCNCC2)C1 was Toxoplasma: -5.306%.
Result for CC(Cc1cccc(Cl)c1)NC(=O)Nc1cnn(CC(N)=O)c1 (stereo not drawn) was PfKRS1: 1.971%; Toxoplasma: -7.229%; CoaBC: 3.181%.
Result for CC(CNC(=O)c1cc(Cl)ccc1F)N1CCCC1 (stereo not drawn) was PfKRS1: -2.263%; Toxoplasma: 15.15%; CoaBC: -1.378%.
Result for Cc1cc(C)n(CC2CCCN2CC(=O)Nc2cc(C(C)C)no2)n1 (stereo not drawn) was PfKRS1: -1.548%; Toxoplasma: 17.52%; CoaBC: -0.1304%.
Result for O=C1CC[C@]2(CC[C@@H](NC(=O)NCc3ccccc3)CC2)N1 was PfKRS1: 3.633%; Toxoplasma: 17.34%; CoaBC: 0.3861%.
Result for CCCc1n[nH]c(C2CN(C(=O)CCn3nc(C)cc3C)CCO2)n1 (stereo not drawn) was PfKRS1: -22.73%; Toxoplasma: 8.977%; CoaBC: -11.37%.
Result for Cc1ccc(-c2nc(CNCCn3cccn3)cs2)o1 was PfKRS1: -1.346%; Toxoplasma: -22.58%; CoaBC: 0.5319%.
Result for Cc1cncc(C(=O)NCC2COCc3c(C)nnn3C2)c1 (stereo not drawn) was PfKRS1: 0.1498%; Toxoplasma: -1.266%; CoaBC: 0.1631%.
Result for [H][C@@]12CCN(C(=O)N(C)C)[C@]1([H])CC[C@H](C(=O)N(C)C)O2 was Toxoplasma: -2.535%.
Result for Cc1ncnc(NCc2cc3n(n2)CCCN(S(C)(=O)=O)C3)c1C was PfKRS1: 6.366%; Toxoplasma: -5.821%; CoaBC: -1.754%.
Result for NC(=O)c1ccccc1-n1cc(-c2cccc(C(=O)O)c2)cn1 was PfKRS1: 2.311%; Toxoplasma: 8.706%; CoaBC: 14.92%.
Result for CCOc1ncccc1C(=O)N1CCC(Nc2ccc(C)nn2)CC1 was PfKRS1: -2.011%; Toxoplasma: -7.508%; CoaBC: -2.045%.
Result for Cc1nnsc1CNC(=O)Nc1cccc(N2CCN(C)C2=O)c1 was PfKRS1: 2.056%; Toxoplasma: -1.385%; CoaBC: 1.35%.
Result for O=C(NC1CCCN(c2ccccn2)C1)C1(c2ccccc2F)CC1 (stereo not drawn) was PfKRS1: 0.4837%; Toxoplasma: -18.74%; CoaBC: 0.5256%.
Result for Cc1cc(C)c(CNC(=O)N2CCCC2c2cc(C)on2)c(=O)[nH]1 (stereo not drawn) was PfKRS1: -1.997%; Toxoplasma: -12.04%; CoaBC: 11.3%.

The first 2 entries again:

- Cc1nn(C)c(C)c1C1COCCN1C(=O)c1cnc(N)c(Cl)c1 (stereo not drawn) : PfKRS1: 3.165%; Toxoplasma: -1.165%; CoaBC: 2.169%
- CCN1CCCC2(CCN(Cc3nnc(C4CC4)o3)C2)C1=O (stereo not drawn) : PfKRS1: 3.12%; Toxoplasma: 6.383%; CoaBC: 8.28%